Measurements: PubChem BioAssay AID1508600 (Functional Genomics Laboratory (NCATS/FGL), 2020)
Hit rate of the full screen: of about 53,000 sequences, about 3,700 (7%) were called active.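 How the source made its calls: active means gene knockdowns whose robust z-score for IL-1 alpha signal is at least 2 or at most -2, so actives lie on both sides; inactive means the rest.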 The list shows a part of the results.

Assay: Components of the Cytosolic LPS Sensing Pathway: Gene Identification via Genome-wide siRNA Screen;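 further: robust z of the log signal after scaling to non-targeting control siRNA wells of the plate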
Conditions: RAW264.7 macrophages, IL-1a HTRF, actives lie on both sides, screened at 100 nM (by protocol), cells primed 5 h with Pam3CSK4 first
Summary of the method: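 Read-out: IL-1a HTRF on supernatant, divided by plate negative-control median ×100, log-transformed and converted to robust z-score. Cells were RAW264.7 given 100 nM siRNA, Pam3CSK4-primed 5 hours, then LipidA-transfected 24 hour.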

Row | Sequence | z-score
1 | GCUAAGAGGUUGUAGUUUUTT against Tbpl1 | inactive: -0.961
2 | GCUUCGGUCAAAAGUGAGUTT against Glipr1 | inactive: 0.411
3 | CCAGGCAGUAUAAUCAUGUTT against Col4a5 | inactive: -0.236
4 | GGCUCAAUGAGGGAUAAAATT against Qk | inactive: 0.123
5 | GGGACAGAUGCUUUUGUACTT against Samt3 | inactive: -0.127
6 | GAAAUAGAGAUGCCUCUCUTT against Olfr1161 | active: 2.52
7 | GGCCUUGUAACCAACUCCUTT against Sh3bgrl3 | inactive: -0.0613
8 | GCUACUGCCGGAAUUUGGUTT against Tiam1 | inactive: 0.497
9 | GGACAAGUUAACCAUUUUGTT against Asz1 | inactive: -0.413
10 | GGGCCACAUGUGUUCACUATT against Shisa5 | active: -2.35
11 | GCUGUACGCCAAUGUGUACTT against Champ1 | inactive: -0.54
12 | GCUCCAAGCUUCUCUAUAGTT against Vmn1r206 | inactive: -1.89
13 | GGCAAUGUAGUGAACAAACTT against Gtpbp1 | inactive: -0.288
14 | CGGGCUGAAGCUCAUUUCUTT against Gpd1 | inactive: 1.32
15 | GCUCUGAACUCAAUAAUAATT against Atg7 | inactive: -0.875
16 | GGGAAGAAAGGAUGGGAAATT against Fev | inactive: 0.355
17 | GGAACCUCACAUCCAGUGATT against Apol10b | inactive: 1.53
18 | GGAGAAGCCAAAAGAAUGCTT against Xrn2 | inactive: -0.76
19 | GGAGUGAGCAUUUACUUUGTT against Arel1 | inactive: 0.368
20 | GGAUGAACCUACACCCUAATT against Dhrs13 | inactive: -0.166
21 | GGCAAAAAAAAAAUGCCCATT against Sox2 | inactive: -0.742
22 | GGUCCAAAACCAUCAGAAGTT against Plekha5 | inactive: -0.668

Row | Sequence | z-score
23 | GGUCAACAGUUACAUCGAGTT against Vps33a | inactive: 0.273
24 | CCUGAACUAUAGAUGGAUUTT against Manba | active: 3.37
25 | GGAUUGCUCUAGCCAUUGUTT against Olfr691 | inactive: 0.57
26 | GCAUAAUGAAGUUCCAAAUTT against Casd1 | inactive: 1.34
27 | GGGUCAUCGGAACAGAACUTT against Sult3a1 | active: -2.26
28 | GAGCAGAACCGCAUCAUAUTT against Ucn | inactive: -0.22
29 | GGCAAGAUGCACAAGACUUTT against Cacna1s | active: 2.6
30 | GGAAAGACUUACCAGAAUATT against Smarca2 | inactive: 1.16
31 | GGGUCACUGAAGGUACUCUTT against Cd300c2 | inactive: -1.41
32 | CCUGAGGACCACUACUUUUTT against Actr3b | inactive: 1.44
33 | CGAGAAAAACGAUUUACUGTT against Orai2 | inactive: -0.527
34 | CGGAUUGAGUAAUUAUUUCTT against Morc4 | inactive: 0.279
35 | CCGUGGAUAACAUGAGCAUTT against Agpat2 | inactive: -0.491
36 | GCACCACAAUGAAACGUGCTT against Cacng1 | inactive: -0.0521
37 | GGACCUACCAGAAUCUGGUTT against Phip | inactive: -1.32
38 | GGAACUUGGUAUUUAGAUCTT against Rhot2 | inactive: 0.295
39 | GGUACUACUUUCUAAUUCATT against Vcam1 | inactive: 1
40 | GCUAAGUACGUUCAUGGCATT against Gba | inactive: 0.571
41 | CCUGGAUGGAUUUAAGGCATT against Abcd4 | inactive: 0.782
42 | CGCUUUAGUGACUUUCAAATT against Metrnl | inactive: -0.583
43 | GGAACUGGAUCAAGAAUUUTT against Hhat | inactive: 0.0393
44 | CCAGUAAAGUAGGUUUUCUTT against Auts2 | inactive: 1.36

Rewritten in markdown: part of the list above

| Row | Sequence | z-score |
| --- | --- | --- |
| 25 | GGAUUGCUCUAGCCAUUGUTT against Olfr691 | inactive: 0.57 |
| 26 | GCAUAAUGAAGUUCCAAAUTT against Casd1 | inactive: 1.34 |
| 27 | GGGUCAUCGGAACAGAACUTT against Sult3a1 | active: -2.26 |
| 28 | GAGCAGAACCGCAUCAUAUTT against Ucn | inactive: -0.22 |
| 29 | GGCAAGAUGCACAAGACUUTT against Cacna1s | active: 2.6 |
| 30 | GGAAAGACUUACCAGAAUATT against Smarca2 | inactive: 1.16 |

The listing continues.

Row | Sequence | z-score
45 | GGAUGAAGAUGGAGACAUGTT against Lmx1b | active: -2.58
46 | CCGCAGUUGUCUUUCAAGATT against Dcaf1 | inactive: 0.724
47 | GGGUAGACUGUCAGAUUUUTT against Tmc5 | inactive: 1.35
48 | GCACAUUACUCCUUAUUCUTT against Olfr74 | inactive: -0.53
49 | CCAAUGACUUCUGGUUAGATT against Tdpoz1 | inactive: 0.665
50 | GGAUCUCGGGAAAAAGUUGTT against Spesp1 | inactive: 0.185
51 | CGAGCAUGAAAAUUCGGUUTT against Neurog1 | inactive: 1.24
52 | GGUCAAAACACCUUUAGAUTT against Trip4 | inactive: -0.167
53 | GGAGCAUCCACACUUUGUUTT against Hif3a | inactive: -0.343
54 | GGAGUUGUAGUGAGGGUCATT against Fcgbp | inactive: -0.971
55 | GCAAACCUGACAAAAAUAGTT against Tifab | inactive: 0.255
56 | ACUAGACUGAACUACCUGATT against Aim2 | inactive: 0.137
57 | GGUAUUGUGGCCAGUAUUUTT against Ptdss2 | inactive: 0.185
58 | GGGCGAGAAGUUUAAACUUTT against Dnaja4 | inactive: 0.822
59 | GGGAAAUGGUGAAUCACAGTT against Dpp8 | active: 2.25
60 | GCUACAGAUACCUCGGAUATT against Psme1 | inactive: 0.841
61 | GGGAAAAAUAUCAGUUAUGTT against Khdrbs1 | inactive: 0.465
62 | GGUCUUUUCAGAAUAAACUTT against Timmdc1 | inactive: -1.29
63 | GCUCCAGUGAUUAUUUAUATT against Cep70 | inactive: 0.749
64 | GGAAGACUAUUUUCUGUAUTT against Gabarapl1 | inactive: 1.61
65 | GGAGCUGUUUACCAUGUCATT against Rgl1 | inactive: -1.31
66 | GGUCUGGUGUUGUAGGAUATT against Map1lc3b | active: 2.71

Row | Sequence | z-score
67 | CCAUGGCGAUGUCAUGUUCTT against Kcnrg | inactive: 1.12
68 | GGACACAGAUGCUUUCUUGTT against Dnajc24 | inactive: -0.253
69 | CCCGCACAUGAAAUCCGCUTT against Rflna | inactive: 0.455
70 | GUUCAACGAGAGUUCCAGUTT against Olfr898 | inactive: -1.49
71 | CAAUGUGCAGAGUUUCCGATT against LOC547349 | inactive: -1.98
72 | GGAGGUGGUACAAUACACCTT against Gsg1 | active: 2.86
73 | GGUCAAGUGCGAGAAACUCTT against Mafb | inactive: -0.016
74 | GGACAGAAGAAGAAAGCCCTT against Gpr22 | inactive: -0.539
75 | GGUAAAGUAGGGAUGGAAUTT against Inpp4b | inactive: -0.0761
76 | GUCAUCAGGACUGGGAAGUTT against Sprr2b | inactive: 0.597
77 | CCCAAAUGCGCCAAAAUCATT against Adat2 | inactive: -0.243
78 | CGCAGUCACACCUUGUUAUTT against Cds2 | inactive: 0.428
79 | GGAUAUCGAGGAGAUGAUCTT against Aoc3 | active: -2.17
80 | CGGUGCAUCCAAAUUCACATT against Zfp560 | inactive: 0.404
81 | GUGUCAUUUCCCGGGACAUTT against Atp5g1 | inactive: 1.64
82 | GGUUAAAAUGAGCUUGUUGTT against Rngtt | inactive: 1.02
83 | GGAGUUUGCCACAAUUGUUTT against Txndc11 | inactive: -0.503
84 | GCCAUACUACGACAUGACATT against Sstr2 | inactive: -0.743
85 | GGUGGAUAUCCUAUAACUATT against 4930402H24Rik | inactive: 0.469
86 | GGGUGACCUUGAUUCACACTT against Cda | inactive: 0.203
87 | CCCGUGUCUAUGUGAAAAUTT against Olfr1015 | inactive: 0.226
88 | GCCUUAAUGAGGCUACUAGTT against Art2a | inactive: 0.111

Row | Sequence | z-score
89 | GGAAGCAAUGUGAGAAAUUTT against Tmem91 | active: 2.54
90 | CCAAAGAGAUAUCCCUCCCTT against Olfr1350 | inactive: -0.283
91 | GGGAAGCCUUACUUAUUGGTT against Vmn1r53 | inactive: 1.25
92 | CCUGAUAGGCCUAAACCUUTT against Tmem147 | inactive: -0.398
93 | CCAGAUCCGGACAAUUGACTT against Ppp4c | inactive: 1.85
94 | GCUCAGCUGUGGGUAAUACTT against Raver2 | active: -2.77
95 | GGCAUGCAGGGUAUUGCGUTT against Chtf18 | inactive: 0.157
96 | CCUCAUUGUACAAGUAUCUTT against Ntm | inactive: -1.17
97 | GGUUAUUCUGGCUAUGGGCTT against Taf15 | active: -2.22
98 | GGAAGAUGUUGAUGAUAUCTT against Snap47 | inactive: 1.15
99 | GGAAGCUACGCUCAAUGAGTT against Dkk3 | inactive: -0.796
100 | CGACUCUUGCCUGUUCGUGTT against Adamtsl5 | active: -2.48
101 | GGAGACUUAAAGGACAAAUTT against Jade1 | inactive: 0.769
102 | CCAAAUAUCACACACCCGATT against Fam187a | inactive: 0.798
103 | CGCCUUAAACGAAGCUGCUTT against 1700034E13Rik | inactive: -1.28
104 | GGACAUCGGCUACAACACCTT against Fzd10 | active: -2.08
105 | GGAAAGACACAGAUAAUAATT against Arvcf | inactive: -1.28
106 | GGUCACAGACAUUCCCGAATT against Atad2 | active: -2.89
107 | GAUAAAAUCGGACUGAUAATT against Olfr1079 | inactive: 0.837
